To fix the notation:
B1: MIRO1-281-400 (domain or fragment, UniProt Q8IXI2 281-400)
chain: DLTPEYLFPLLKIPPDCTTELNHHAYLFLQSTFDKHDLDRDCALSPDELKDLFKVFPYIPWGPDVNNTVCTNERGWITYQGFLSQWTLTTYLDVQRCLEYLGYLGYSILTEQESQASAVT
B2: MIRO1-1-280 (domain or fragment, UniProt Q8IXI2 1-280)
chain: MKKDVRILLVGEPRVGKTSLIMSLVSEEFPEEVPPRAEEITIPADVTPERVPTHIVDYSEAEQSDEQLHQEISQANVICIVYAVNNKHSIDKVTSRWIPLINERTDKDSRLPLILVGNKSDLVEYSSMETILPIMNQYTEIETCVECSAKNLKNISELFYYAQKAVLHPTGPLYCPEEKEMKPACIKALTRIFKISDQDNDGTLNDAELNFFQRICFNTPLAPQALEDVKNVVRKHISDGVADSGLTLKGFLFLHTLFIQRGRHETTWTVLRRFGYDDDL
B3: MIRO1-401-594 (domain or fragment, UniProt Q8IXI2 401-594)
chain: VTRDKKIDLQKKQTQRNVFRCNVIGVKNCGKSGVLQALLGRNLMRQKKIREDHKSYYAINTVYVYGQEKYLLLHDISESEFLTEAEIICDVVCLVYDVSNPKSFEYCARIFKQHFMDSRIPCLIVAAKSDLHEVKQEYSISPTDFCRKHKMPPPQAFTCNTADAPSKDIFVKLTTMAMYPHVTQADLKSSTFWL
B4: MIRO1-1-594 (domain or fragment, UniProt Q8IXI2 1-594)
chain: MKKDVRILLVGEPRVGKTSLIMSLVSEEFPEEVPPRAEEITIPADVTPERVPTHIVDYSEAEQSDEQLHQEISQANVICIVYAVNNKHSIDKVTSRWIPLINERTDKDSRLPLILVGNKSDLVEYSSMETILPIMNQYTEIETCVECSAKNLKNISELFYYAQKAVLHPTGPLYCPEEKEMKPACIKALTRIFKISDQDNDGTLNDAELNFFQRICFNTPLAPQALEDVKNVVRKHISDGVADSGLTLKGFLFLHTLFIQRGRHETTWTVLRRFGYDDDLDLTPEYLFPLLKIPPDCTTELNHHAYLFLQSTFDKHDLDRDCALSPDELKDLFKVFPYIPWGPDVNNTVCTNERGWITYQGFLSQWTLTTYLDVQRCLEYLGYLGYSILTEQESQASAVTVTRDKKIDLQKKQTQRNVFRCNVIGVKNCGKSGVLQALLGRNLMRQKKIREDHKSYYAINTVYVYGQEKYLLLHDISESEFLTEAEIICDVVCLVYDVSNPKSFEYCARIFKQHFMDSRIPCLIVAAKSDLHEVKQEYSISPTDFCRKHKMPPPQAFTCNTADAPSKDIFVKLTTMAMYPHVTQADLKSSTFWL
B5: MIRO1-181-594 (domain or fragment, UniProt Q8IXI2 181-594)
chain: MKPACIKALTRIFKISDQDNDGTLNDAELNFFQRICFNTPLAPQALEDVKNVVRKHISDGVADSGLTLKGFLFLHTLFIQRGRHETTWTVLRRFGYDDDLDLTPEYLFPLLKIPPDCTTELNHHAYLFLQSTFDKHDLDRDCALSPDELKDLFKVFPYIPWGPDVNNTVCTNERGWITYQGFLSQWTLTTYLDVQRCLEYLGYLGYSILTEQESQASAVTVTRDKKIDLQKKQTQRNVFRCNVIGVKNCGKSGVLQALLGRNLMRQKKIREDHKSYYAINTVYVYGQEKYLLLHDISESEFLTEAEIICDVVCLVYDVSNPKSFEYCARIFKQHFMDSRIPCLIVAAKSDLHEVKQEYSISPTDFCRKHKMPPPQAFTCNTADAPSKDIFVKLTTMAMYPHVTQADLKSSTFWL
B6: MIRO1-1-400 (domain or fragment, UniProt Q8IXI2 1-400)
chain: MKKDVRILLVGEPRVGKTSLIMSLVSEEFPEEVPPRAEEITIPADVTPERVPTHIVDYSEAEQSDEQLHQEISQANVICIVYAVNNKHSIDKVTSRWIPLINERTDKDSRLPLILVGNKSDLVEYSSMETILPIMNQYTEIETCVECSAKNLKNISELFYYAQKAVLHPTGPLYCPEEKEMKPACIKALTRIFKISDQDNDGTLNDAELNFFQRICFNTPLAPQALEDVKNVVRKHISDGVADSGLTLKGFLFLHTLFIQRGRHETTWTVLRRFGYDDDLDLTPEYLFPLLKIPPDCTTELNHHAYLFLQSTFDKHDLDRDCALSPDELKDLFKVFPYIPWGPDVNNTVCTNERGWITYQGFLSQWTLTTYLDVQRCLEYLGYLGYSILTEQESQASAVT
B7: MIRO1-281-594 (domain or fragment, UniProt Q8IXI2 281-594)
chain: DLTPEYLFPLLKIPPDCTTELNHHAYLFLQSTFDKHDLDRDCALSPDELKDLFKVFPYIPWGPDVNNTVCTNERGWITYQGFLSQWTLTTYLDVQRCLEYLGYLGYSILTEQESQASAVTVTRDKKIDLQKKQTQRNVFRCNVIGVKNCGKSGVLQALLGRNLMRQKKIREDHKSYYAINTVYVYGQEKYLLLHDISESEFLTEAEIICDVVCLVYDVSNPKSFEYCARIFKQHFMDSRIPCLIVAAKSDLHEVKQEYSISPTDFCRKHKMPPPQAFTCNTADAPSKDIFVKLTTMAMYPHVTQADLKSSTFWL
B8: MIRO1-181-280 (domain or fragment, UniProt Q8IXI2 181-280)
chain: MKPACIKALTRIFKISDQDNDGTLNDAELNFFQRICFNTPLAPQALEDVKNVVRKHISDGVADSGLTLKGFLFLHTLFIQRGRHETTWTVLRRFGYDDDL
B9: MIRO1-181-400 (domain or fragment, UniProt Q8IXI2 181-400)
chain: MKPACIKALTRIFKISDQDNDGTLNDAELNFFQRICFNTPLAPQALEDVKNVVRKHISDGVADSGLTLKGFLFLHTLFIQRGRHETTWTVLRRFGYDDDLDLTPEYLFPLLKIPPDCTTELNHHAYLFLQSTFDKHDLDRDCALSPDELKDLFKVFPYIPWGPDVNNTVCTNERGWITYQGFLSQWTLTTYLDVQRCLEYLGYLGYSILTEQESQASAVT

Binding data for nine molecules are collected here from paper PMC10897228.

Results are given in words; binding and its absence hold for the method and conditions named. Binding can be weak; no strength is given.

For this assay, the target named is CENPF-2819-3114. Put plainly: two-hybrid; LexA-based yeast two-hybrid growth assay in EGY48; MIRO1 construct as prey (pJG4-5), bait in pEG202; streaked on SC-Leu+Gal, 30 °C.
In the case of B1, the binding entry is “no binding”.

As for B2, the binding result is listed as “binds”.

In the case of B3, the binding entry is listed as “no binding”.

Regarding B4, the binding result was “binds”.

Consider B5, for which the binding entry is recorded as “no binding”.

For the molecule B6, the binding entry is given as “binds”.

In the case of B7, the binding entry was “no binding”.

Regarding B8, the binding result is on record as “no binding”.

On to B9, for which the binding entry was “no binding”.
